Experimental findings from US20120094958A1, “QUINOLINES AS INHIBITORS OF FARNESYL PYROPHOSPHATE SYNTHASE” (NOVARTIS AG, priority 2008, published 2012) are described below.

Sequences of proteins named here, by UniProt entry; tags and fusion partners are left off. Residues count along the entry.
UniProt P14324, 67-419: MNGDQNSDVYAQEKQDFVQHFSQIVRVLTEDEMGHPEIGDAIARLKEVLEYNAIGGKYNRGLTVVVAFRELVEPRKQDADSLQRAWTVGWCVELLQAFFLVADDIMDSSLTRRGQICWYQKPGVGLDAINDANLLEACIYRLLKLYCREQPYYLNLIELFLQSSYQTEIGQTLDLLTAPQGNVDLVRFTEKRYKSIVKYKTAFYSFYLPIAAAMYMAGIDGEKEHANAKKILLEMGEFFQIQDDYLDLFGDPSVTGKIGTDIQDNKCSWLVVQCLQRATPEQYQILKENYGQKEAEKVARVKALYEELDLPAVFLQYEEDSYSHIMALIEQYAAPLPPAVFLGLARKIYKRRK

This assay concerns the target FPPS (Farnesyl pyrophosphate synthase) (Homo sapiens, UniProt P14324). In words: FPPS Assay: LC-MS Method. It counts as biochemical. The conditions noted are these: read-out: FPPS IC50, GPP/IPP 5 μM each, reaction stopped after 10 minutes, tested form: TFA.

pIC50: −log10 of the molar value. The structures given here were assigned with low confidence; some may be wrong.

Consider `CC(C)(C)OC(=O)NC(C(=O)Nc1cc(-c2cccc3ccccc23)c2nc(/C=C/P(=O)(O)O)ccc2c1)C(C)(C)C` (stereo not shown), for which the pIC50 is 6.24.
